The values that follow come from the supplement of paper PMC11732987, “Enantioselective OTUD7B fragment discovery through chemoproteomics screening and high-throughput optimisation” (Communications Chemistry, 2025).

This is one part of the list. The data scatter; read single values as rough.

The subject of one assay is T1, MECOM C1119.
T1 sequence (whole entry): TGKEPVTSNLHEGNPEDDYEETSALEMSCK
In words: log2 mean competition ratio of IA-DTB cysteine labelling (DMSO/compound) (log2 ratio); higher = stronger cysteine engagement by compound. As to conditions: 50 µM; treatment time: 4 h; cell line lysate: HEK293T. Here is the method:
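IA-DTB competitive cysteine chemoproteomics in HEK293T RIPA lysate. Lysates were treated with compound 29 or 30 at 50 or 200 µM for 4 h, then IA-DTB (500 µM, 1 h), trypsin-digested, NeutrAvidin-enriched and analysed by diaPASEF. Competition ratio = intensity DMSO / intensity compound (n=4 treated, n=64 DMSO); binding: mean log2 CR ≥ 1 and p ≤ 0.05 plus QC filters. Target is the cysteine site.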
For the compound `O=C(CCl)N[C@H]1CCCc2ccccc21`, the “log2 mean competition ratio” value was -0.235.
For the compound `O=C(CCl)N[C@@H]1CCCc2ccccc21`, the “log2 mean competition ratio” value is -0.206.

The same assay, now with this note: 200 µM; treatment time: 4 h; cell line lysate: HEK293T.
Turning to `O=C(CCl)N[C@H]1CCCc2ccccc21`, the “log2 mean competition ratio” value was found to be 0.0483.
Consider `O=C(CCl)N[C@@H]1CCCc2ccccc21`, for which the “log2 mean competition ratio” value is -0.166.
